# Assay results as given in PubChem BioAssay AID330 (DTP/NCI, 2004).
# The list shows only some results of the screen, not a fair sample: it is rich in T/C values a quarter to a half above the control, in often repeated tests (any T/C) and in doses without a T/C. Other doses and runs of a compound stand elsewhere. T/C gives the treated animals as a percentage of the vehicle group. Some doses have a count of surviving animals in place of a T/C: the source holds a T/C of zero for them, seemingly a mark for toxic or unscored doses. Some doses without a T/C left all or most animals alive at the check, yet need not have been tolerated: the source hardly ever lists a survival T/C far under the control, and the zero likely stands for such cases as well. Counts of survivors are from the toxicity check (mostly the fifth day) where no day follows; animals may have died later. Schedules are NCI's codes, taken here to give the interval after Q, in days (D) or hours (H), and the number of doses after X. Some entries were tested several times; the values are given in rising order. Where survival is the endpoint, the PubChem record calls one and a half times the control and up active, and a quarter to a half above the control has no call in these data; cut-offs in other NCI protocols can differ. Some structures stand for samples that the source files as different forms (salt, stereo form or complex); doses refer to the form tested.
# System: P388 leukemia ip, CD2F1 mice, survival T/C
# Experiment: NCI In Vivo Anticancer Drug Screen. Data for tumor model P388 Leukemia (intraperitoneal) in CD2F1 (CDF1) mice
# Conditions: T/C endpoint: median survival time, higher T/C = longer survival
# [1] = dose: 400.0 mg/kg/injection, schedule: Q01DX009 (ip), vehicle: other
# [2] = dose: 50.0 mg/kg/injection, schedule: Q01DX009 (ip), vehicle: saline
# [3] = dose: 200.0 mg/kg/injection, schedule: Q01DX009 (ip), vehicle: saline
# [4] = dose: 200.0 mg/kg/injection, schedule: Q01DX009 (ip), vehicle: Klucel (hydroxypropylcellulose) (HPC)
# [5] = dose: 50.0 mg/kg/injection, schedule: Q01DX009 (ip), vehicle: water
# [6] = dose: 200.0 mg/kg/injection, schedule: Q01DX009 (ip), vehicle: saline with Tween-80
# [7] = dose: 50.0 mg/kg/injection, schedule: Q01DX009 (ip), vehicle: other
# [8] = dose: 12.5 mg/kg/injection, schedule: Q01DX009 (ip), vehicle: water
# [9] = dose: 200.0 mg/kg/injection, schedule: Q01DX005 (ip), vehicle: saline with Tween-80
smiles,measurement,setting,value
Clc1ncnc2c1ncn2C1CCCCO1 (centres undefined),survivor count,[1],6 of 6
O=[N+]([O-])c1c(Sc2ncccn2)ncnc1Sc1ncccn1,survivor count,[2],5 of 6
same,survivor count,"dose: 100.0 mg/kg/injection, schedule: Q01DX009 (ip), vehicle: saline",1 of 6
same,survivor count,[3],0 of 6
O=C1CCSC(=S)N1c1ccc(F)cc1F,survivor count,[2],6 of 6
same,survivor count,"dose: 50.0 mg/kg/injection, schedule: Q01DX009 (ip), vehicle: suspension in saline",6 of 6
same,survivor count,"dose: 100.0 mg/kg/injection, schedule: Q01DX009 (ip), vehicle: suspension in saline",5 of 6
O=S(=O)(Cl)CCCCS(=O)(=O)Cl,survivor count,"dose: 100.0 mg/kg/injection, schedule: Q01DX009 (ip), vehicle: Klucel (hydroxypropylcellulose) (HPC)",5 of 6
same,survivor count,[4],0 of 6
CCC(=O)OCc1c(Cl)nc2n1CCS2,survivor count,"dose: 400.0 mg/kg/injection, schedule: Q01DX001 (ip), vehicle: Klucel (hydroxypropylcellulose) (HPC)",2 of 6
COC(=O)CC(c1ccccc1)C1(c2ccc3c(c2)OCO3)SCCCS1 (centres undefined),survivor count,"dose: 400.0 mg/kg/injection, schedule: Q01DX001 (ip), vehicle: saline with Tween-80",6 of 6
CC(N)C(=O)OCN1C(=O)C2C3C=CC(C2C1=O)C1C2C(=O)N(COC(=O)C(C)N)C(=O)C2C31 (centres undefined),T/C,[5],127 % of control
same,survivor count,"dose: 200.0 mg/kg/injection, schedule: Q01DX009 (ip), vehicle: water",1 of 6
CN=C(NC)c1ccc(NC(=O)c2cc(C(=O)Nc3ccc(C(=NC)NC)cc3)cc([N+](=O)[O-])c2)cc1,survivor count,"dose: 25.0 mg/kg/injection, schedule: Q01DX005 (ip), vehicle: Klucel (hydroxypropylcellulose) (HPC)",6 of 6
same,survivor count,"dose: 50.0 mg/kg/injection, schedule: Q01DX005 (ip), vehicle: Klucel (hydroxypropylcellulose) (HPC)",0 of 6
same,survivor count,"dose: 100.0 mg/kg/injection, schedule: Q01DX005 (ip), vehicle: Klucel (hydroxypropylcellulose) (HPC)",0 of 6
same,survivor count,"dose: 200.0 mg/kg/injection, schedule: Q01DX005 (ip), vehicle: Klucel (hydroxypropylcellulose) (HPC)",0 of 6
O=c1[nH]c2cc([N+](=O)[O-])ccc2nc1/C=C(\O)c1ccc(F)cc1,survivor count,"dose: 240.0 mg/kg/injection, schedule: Q01DX005 (ip), vehicle: Klucel + Tween-80",6 of 6
CCCCOc1ccc(Nc2c3ccccc3nc3ccccc23)cc1,T/C,"dose: 50.0 mg/kg/injection, schedule: Q01DX009 (ip), vehicle: saline with Tween-80",136 % of control
same,survivor count,"dose: 100.0 mg/kg/injection, schedule: Q01DX009 (ip), vehicle: saline with Tween-80",0 of 6
COc1ccc2nc3c(=O)[nH]c(=O)nc-3n(CC(O)C(O)C(O)CO)c2c1 (centres undefined),survivor count,"dose: 200.0 mg/kg/injection, schedule: Q04DX002 (ip), vehicle: saline",3 of 6
same,survivor count,"dose: 400.0 mg/kg/injection, schedule: Q04DX002 (ip), vehicle: saline",1 of 6
NC1=NC2CC(N1)c1ccc(O)cc1O2 (centres undefined),survivor count,[3],2 of 6
CC1=NN(C(=O)c2ccncc2)C(=O)C1N=Nc1ccc2ccccc2c1 (centres undefined),survivor count,[6],6 of 6
COc1cc(Br)c(C(=O)Nc2ccc(O)cc2)cc1OC,T/C,[7],126 % of control
same,T/C,[1],130 % of control
[Br][Hg][CH]1CCC2CCCC1O2 (centres undefined),survivor count,"dose: 50.0 mg/kg/injection, schedule: Q01DX009 (ip), vehicle: Klucel (hydroxypropylcellulose) (HPC)",1 of 6
O=C(c1ccc(OCC(O)CN2CCN(c3ccccc3)CC2)cc1)c1cc2ccccc2c2ccccc12 (centres undefined),survivor count,"dose: 400.0 mg/kg/injection, schedule: Q04DX003 (ip), vehicle: alcohol",4 of 6
same,survivor count,"dose: 400.0 mg/kg/injection, schedule: Q04DX003 (ip), vehicle: other",4 of 6
Cc1cnc2cc(Cl)ccc2c1NCCNCCO,survivor count,"dose: 200.0 mg/kg/injection, schedule: Q01DX005 (ip), vehicle: saline",0 of 5
CC1OC(OC2CC(O)(C(=O)CO)Cc3c(O)c4c(c(O)c32)C(=O)c2ccccc2C4=O)CC(N)C1O (centres undefined),T/C,"dose: 0.03 mg/kg/injection, schedule: Q01DX009 (ip), vehicle: water",137 % of control
same,T/C,"dose: 0.13 mg/kg/injection, schedule: Q04DX003 (ip), vehicle: water",128 % of control
same,T/C,"dose: 0.5 mg/kg/injection, schedule: Q04DX003 (ip), vehicle: water",128 % of control
same,T/C,"dose: 1.0 mg/kg/injection, schedule: Q04DX003 (ip), vehicle: water",143 % of control
same,survivor count,"dose: 1.56 mg/kg/injection, schedule: Q01DX009 (ip), vehicle: water",5 of 6 and 6 of 6
same,T/C,"dose: 1.8 mg/kg/injection, schedule: Q01DX001 (ip), vehicle: water",135 % of control
same,survivor count,"dose: 3.13 mg/kg/injection, schedule: Q01DX009 (ip), vehicle: water",3 of 6 and 4 of 6
same,T/C,"dose: 4.0 mg/kg/injection, schedule: Q04DX003 (ip), vehicle: water",146 % of control
same,survivor count,"dose: 4.2 mg/kg/injection, schedule: Q01DX001 (ip), vehicle: water",6 of 6
same,survivor count,"dose: 5.6 mg/kg/injection, schedule: Q01DX001 (ip), vehicle: water",4 of 6
same,survivor count,"dose: 6.25 mg/kg/injection, schedule: Q01DX009 (ip), vehicle: water",1 of 6
same,survivor count,"dose: 7.5 mg/kg/injection, schedule: Q01DX001 (ip), vehicle: water",3 of 6
same,survivor count,"dose: 10.0 mg/kg/injection, schedule: Q01DX001 (ip), vehicle: water",2 of 6
same,survivor count,[8],2 of 6
same,survivor count,"dose: 25.0 mg/kg/injection, schedule: Q01DX009 (ip), vehicle: water",0 of 6
OCCOCCN1CCN(CCCN2c3ccccc3Sc3ccc(C(F)(F)F)cc32)CC1,T/C,"dose: 50.0 mg/kg/injection, schedule: Q04DX003 (ip), vehicle: saline",132 % of control
same,survivor count,"dose: 100.0 mg/kg/injection, schedule: Q04DX003 (ip), vehicle: saline",5 of 6
CN(C)CCCN1c2ccccc2C2CC2c2ccccc21 (centres undefined),survivor count,[6],2 of 6
CC1=CC=c2ccc3c(c2[N-]1)[N-]C(C)=CC=3.CC1=CC=c2ccc3c(c2[N-]1)[N-]C(C)=CC=3.O=[N+]([O-])O.[Cu+],survivor count,"dose: 25.0 mg/kg/injection, schedule: Q04DX002 (ip), vehicle: suspension in saline",0 of 6
same,survivor count,"dose: 100.0 mg/kg/injection, schedule: Q04DX002 (ip), vehicle: suspension in saline",0 of 6
same,survivor count,"dose: 200.0 mg/kg/injection, schedule: Q04DX002 (ip), vehicle: suspension in saline",0 of 6
same,survivor count,"dose: 400.0 mg/kg/injection, schedule: Q04DX002 (ip), vehicle: suspension in saline",0 of 6
CCCCC(S)CS (centres undefined),survivor count,"dose: 100.0 mg/kg/injection, schedule: Q01DX005 (ip), vehicle: saline with Tween-80",2 of 6
same,survivor count,[9],1 of 6
COc1cc2ccc3c[n+](C)ccc3c2cc1OC,T/C,[8],125 % of control
same,T/C,[7],132 % of control
same,T/C,[5],125 and 129 % of control
same,T/C,"dose: 100.0 mg/kg/injection, schedule: Q01DX009 (ip), vehicle: other",135 % of control
same,T/C,"dose: 100.0 mg/kg/injection, schedule: Q01DX009 (ip), vehicle: water",137 % of control
CC1CCC(=O)CN1Cc1ccccc1 (centres undefined),survivor count,[9],3 of 6
Cc1nn(C(=O)c2ccncc2)c(C)c1N=Nc1ccc(S(N)(=O)=O)cc1,survivor count,[4],6 of 6
COc1ccc(NC(=O)CCC(=O)Oc2ccccc2)cc1,survivor count,[6],3 of 6
CC1(C)CC(OS(C)(=O)=O)CC(C)(C)N1O,survivor count,[4],2 of 6
COC(=O)C(=O)c1c(C2CC2)[nH]c2[nH]n(-c3ccccc3)c(=O)c2c1=O,survivor count,"dose: 240.0 mg/kg/injection, schedule: Q01DX005 (ip), vehicle: saline with Tween-80",0 of 6
